Assay results as given in the supplement of paper PMC10727501.
The other results are listed elsewhere or left out. This data set is noisy: repeats of one test often differ as much as different tests do.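 Researchers measured free-swimming zebrafish larvae's O-bend response probability to dark flashes (naive: first five; training: remaining flashes of four 60-flash blocks; test: later 60-flash block) and OMR turning toward alternating leftward/rightward LED motion. Six treated larvae were compared to sixty 0.1% DMSO controls, with |SSMD|≥2 marking a hit.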

test system: Danio rerio larvae (5 dpf, TLF); assay: OMR-Perf (SSMD vs DMSO vehicle); higher = higher than vehicle (e.g. higher dark-flash O-bend response probability, or better optomotor performance); settings: 10 µM; pre-incubation: 30-90 min

Compound	OMR-Perf
CC(NC(=O)c1ccccc1/N=C/c1c(O)ccc2ccccc12)c1ccccc1 (centres undefined) [Sirtinol]	0.179
CN1CCN(c2ccc3nc(-c4c(N)c5c(F)cccc5[nH]c4=O)[nH]c3c2)CC1 [Dovitinib (TKI-258, CHIR-258)]	0.182
CCCCC(=O)N(Cc1ccc(-c2ccccc2-c2nn[nH]n2)cc1)[C@H](C(=O)O)C(C)C [Valsartan]	0.487
CN(C)CCN1C(=O)c2cccc3cc(N)cc(c23)C1=O [Amonafide]	-0.147
Nc1nc(=O)c2ncn(CCC(CO)CO)c2[nH]1 [Penciclovir]	0.253
Cl.c1ccc(C2CN3CCSC3=N2)cc1 (centres undefined) [Tetramisole HCl]	0.0536
COc1ccc([C@H]2CNC(=O)C2)cc1OC1CCCC1 [S- (+)-Rolipram]	-0.73
N[C@@H]1CN(c2c(F)cc3c(=O)c(C(=O)O)cn([C@@H]4C[C@@H]4F)c3c2Cl)CC12CC2 [Sitafloxacin Hydrate]	0.124
Nc1nc(N)c2nc(-c3cccc(O)c3)c(-c3cccc(O)c3)nc2n1	0.248
Cn1c(=O)n(-c2ccc(C(C)(C)C#N)cc2)c2c3cc(-c4cnc5ccccc5c4)ccc3ncc21 [BEZ235 (NVP-BEZ235, Dactolisib)]	0.39
CC(C)(C)NC[C@H](O)COc1nsnc1N1CCOCC1.O=C(O)/C=C/C(=O)O [Timolol Maleate]	-0.311
CC(C(=O)O)c1ccc2c(c1)[nH]c1ccc(Cl)cc12 (centres undefined) [Carprofen]	0.585
CNC(=O)c1cccc(-c2ccc3c(N4CCOC[C@@H]4C)nc(N4CCOC[C@@H]4C)nc3n2)c1	-0.111
COC(=O)Nc1nc2ccc(C(=O)c3ccc(F)cc3)cc2[nH]1 [Flubendazole]	-0.0407
CCc1ccc(CCOc2ccc(CC3SC(=O)NC3=O)cc2)nc1.Cl (centres undefined) [Pioglitazone HCl]	-0.308
CN/C(=N\C#N)NCCSCc1nc[nH]c1C [Cimetidine]	-0.0682
CC(C)NCC(O)c1ccc(O)c(O)c1.Cl (centres undefined) [Isoprenaline HCl]	0.233

Compound	OMR-Perf
Cl.Nc1c2c(nc3ccccc13)CCCC2 [Tacrine HCl]	0.252
C[C@H]1C[C@H]2[C@@H]3CCC4=CC(=O)C=C[C@]4(C)[C@@H]3C(=O)C[C@]2(C)[C@]1(O)C(=O)CO [Meprednisone]	-0.0129
CN(C)CCCN1c2ccccc2CCc2ccc(Cl)cc21.Cl [Clomipramine HCl]	-1.17
COc1ccc(-c2cc3c(C)nc(N)nc3n([C@H]3CC[C@H](OCCO)CC3)c2=O)cn1	-0.975
O=C(NNc1ccccc1)c1ccncc1	0.765
CC(C)/N=c1/cc2n(-c3ccc(Cl)cc3)c3ccccc3nc-2cc1Nc1ccc(Cl)cc1 [Clofazimine]	-0.363
CCCc1nc(C(C)(C)O)c(C(=O)OCc2oc(=O)oc2C)n1Cc1ccc(-c2ccccc2-c2nn[nH]n2)cc1 [Olmesartan Medoxomil]	0.051
Cc1ccc(C(=O)C(C)CN2CCCCC2)cc1.Cl (centres undefined) [Tolperisone HCl]	-0.395
O=c1cc(N2CCOCC2)oc2c(-c3ccccc3)cccc12	-0.0993
CC[C@@H](C)[C@@H]1NC(=O)[C@@H](CCCN)NC(=O)[C@@H](NC(=O)[C@@H](NC(=O)[C@@H](CCC(=O)[O-])NC(=O)[C@H](CC(C)C)NC(=O)C2CN=C([C@@H](N)[C@@H](C)CC)S2)[C@H](C)CC)CCCCNC(=O)[C@H](CC(N)=O)NC(=O)[C@@H](CC(=O)[O-])NC(=O)[C@H](Cc2c[nH]cn2)NC(=O)[C@H](Cc2ccccc2)NC1=O.[Zn+2] (some centres undefined) [Bacitracin zinc]	-0.402
COc1ccc2[nH]c(S(=O)Cc3ncc(C)c(OC)c3C)nc2c1 (centres undefined) [Omeprazole]	-0.039
COC(c1ccccc1)(c1ccccc1)[C@H](Oc1nc(C)cc(C)n1)C(=O)O [Ambrisentan]	-0.151
O=S(=O)([O-])CCS.[Na+] [Mesna]	-0.00985
C[C@H]1NC(=O)NC1=O [Methylhydantoin-5-(D)]	-0.315
CCN(CC)C(=O)[C@]1(c2ccccc2)C[C@@H]1CN.Cl [Milnacipran HCl]	0.0122
CCn1cc(C(=O)O)c(=O)c2cc(F)c(N3CCNCC3)cc21 [Norfloxacin (Norxacin)]	-0.25
CC(C)OC(=O)OCOP(=O)(CO[C@H](C)Cn1cnc2c(N)ncnc21)OCOC(=O)OC(C)C.O=C(O)/C=C\C(=O)O [Tenofovir Disoproxil Fumarate]	-0.00134

Copied from the results shown (2 entries):
Compound	OMR-Perf
CC(NC(=O)c1ccccc1/N=C/c1c(O)ccc2ccccc12)c1ccccc1 (centres undefined) [Sirtinol]	0.179
CN1CCN(c2ccc3nc(-c4c(N)c5c(F)cccc5[nH]c4=O)[nH]c3c2)CC1 [Dovitinib (TKI-258, CHIR-258)]	0.182
